Results reported in the supplement of paper PMC10338343.
± gives the standard deviation. This is a selection; strong and weak results do not stand in their true shares. Many entries were measured with a wide error. Some of the results follow.

Key:
[1] = test system: MILI (PIWIL2) piRISC loaded with L1MC piRNA (26 nt); assay: pre-steady-state target cleavage rate (min^-1); higher = faster piRNA-guided slicing of the target; conditions: guide: L1MC piRNA 5'p-UAACUAAAUACUAUGCAAGCUGUAGG;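 further: 1 nM active piRISC with 0.1 nM target library at 33 °C single turnover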
In short: (§1)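 For Cleave-'n-Seq, a transcribed, DNA-blocked target RNA library […] met 1 nM active affinity-purified piRISC with one synthetic guide at 33 °C for 0–8 or 0–960 min in HEPES–potassium acetate buffer, with or without 500 nM GTSF1 partner protein. Uncleaved targets were sequenced and normalised to depth and weakly complementary targets, with three trials pooled and k3 capped at 0.0001 min^-1. A burst-and-steady-state fit supplied the pre-steady-state cleavage rate.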

[2] = test system: EfPiwi piRISC loaded with L1MC piRNA (26 nt); assay: pre-steady-state target cleavage rate (min^-1); guide: L1MC piRNA 5'p-UAACUAAAUACUAUGCAAGCUGUAGG; MIWI and MILI are mouse PIWI proteins and EfPiwi is from a freshwater sponge; tags in brackets are library labels; higher = faster piRNA-guided slicing of the target
In short: as §1

[3] = auxiliary factor: none (no GTSF1)
[4] = auxiliary factor: 500 nM Ephydatia muelleri Gtsf1
[5] = auxiliary factor: 500 nM mouse GTSF1
[6] = auxiliary factor: none (no Gtsf1)

Sequence | pre-steady-state target cleavage rate [1, 3] | pre-steady-state target cleavage rate [2, 4] | pre-steady-state target cleavage rate [1, 5] | pre-steady-state target cleavage rate [2, 6]
UCCUCCUACAGCUUGGAUAGUAUUUACUUA | 0.00154 ± 0.0034 | 0.00254 ± 0.0019 |  | 
UCCUCGUACAGCUUGCAUAGUAUUUACAAA | 0.00128 ± 0.0045 | 0.00271 ± 0.0024 |  | 
UCCUCCUACAGCUUGCAUAGUAUAUUAGUUA |  | 0.0567 ± 0.019 | 0.282 ± 0.019 | 
UCCUGGAUGUGCUUGGAUAGAAUUUAGUUA | 0.00199 ± 0.0039 | 0.000304 ± 0.011 |  | 
UCCUGGAUGUCGAACGUUUGUAUAUAGUUA | 0.000255 ± 0.015 |  |  | 0.000206 ± 0.037
UCCUGCUACAGCUUGCAUACUUUUUAGUUA | 0.00197 ± 0.0024 | 0.00156 ± 0.0028 |  | 
UCCUGGAACAGCUUGCAUAGUAUUUUCUUA | 0.00123 ± 0.0052 | 0.00388 ± 0.0027 |  | 
UCCUGGAACAGCUUCGUUAGUAUUUUCAAA | 0.000401 ± 0.013 | 0.000247 ± 0.015 |  | 
UCCUGGAUCAGCUUGCAUAGUAUUUUCUAA | 0.00108 ± 0.0059 | 0.0024 ± 0.0028 |  | 
UCCUGCUACAGCUUGCAUAGUAUAUAGAUA | 0.000783 ± 0.0076 | 0.00352 ± 0.0017 |  | 
UCCUGGAACAGCUUGCAAAGUAUUUACUUA | 0.00214 ± 0.0033 | 0.00154 ± 0.0037 |  | 
UCCUCCAUCAGCUUGCAUAGUAUUUACAAA | 0.001 ± 0.0048 | 0.00282 ± 0.0024 |  | 
UCCUCCUAGCAGCUUGCAUAGUAUUUAGUUA |  | 0.0339 ± 0.0083 | 0.295 ± 0.018 | 
UCCUGGAUGAGCUUGCAUAGUAUUUACAAA | 0.00112 ± 0.0048 |  |  | 0.000614 ± 0.012
UCCUGCUCACAGCUUGCAUAGUAUUUAGUUA |  | 0.072 ± 0.016 | 0.351 ± 0.019 | 
UCCUGGUACAGCUUGAAUAGUAUUUAGUUA |  |  | 0.302 ± 0.055 | 0.000248 ± 0.047
UCCUGGUACAGCUUGCAUUGUAAUUAGUUA | 0.00368 ± 0.0037 |  |  | 0.000275 ± 0.041
UCCUGGAUCAGCUUGCAUAGUUUUUAGUAA | 0.0013 ± 0.0063 | 0.00477 ± 0.0025 |  | 
UCCUGCUACAGCUUGCAUAGUAAUUAGUAA | 0.00127 ± 0.0044 | 0.00441 ± 0.0018 |  | 
UCCUGGAUGUCGAACGUAUCUAAUAAGUUA | 0.000225 ± 0.015 | 0.000145 ± 0.031 |  | 
UCCUGGAUCAGCUUGCAUGGUAUUUAGUUA |  | 0.0193 ± 0.0038 | 0.285 ± 0.025 | 
UCCUGGAUGUCGAACCAUAGGUAUUUAGUUA | 0.000118 ± 0.021 |  |  | 0.000149 ± 0.039
UCCUCCUACACCUUGCAUAGUAUUUAGAUA | 0.00132 ± 0.0052 | 0.004 ± 0.0023 |  | 
UCCUCCUAGAGCUUGCAUAGUAUUUUGUUA | 0.00246 ± 0.0026 | 0.006 ± 0.0024 |  | 
UCCUGGAACAGCAUGCAUAGAAUUUAGUUA | 0.00156 ± 0.004 | 0.00207 ± 0.0021 |  | 

Random excerpt: 2 entries already listed.
Sequence | pre-steady-state target cleavage rate [1, 3] | pre-steady-state target cleavage rate [2, 4] | pre-steady-state target cleavage rate [1, 5] | pre-steady-state target cleavage rate [2, 6]
UCCUGGAACAGCUUGCAAAGUAUUUACUUA | 0.00214 ± 0.0033 | 0.00154 ± 0.0037 |  | 
UCCUGGAUCAGCUUGCAUAGUUUUUAGUAA | 0.0013 ± 0.0063 | 0.00477 ± 0.0025 |  | 

(further entries)

Sequence | pre-steady-state target cleavage rate [1, 3] | pre-steady-state target cleavage rate [2, 4] | pre-steady-state target cleavage rate [1, 5] | pre-steady-state target cleavage rate [2, 6]
UCCUGUUACAGCUUGCAUAGUAUUUAGUUA |  | 0.231 ± 0.07 | 0.328 ± 0.018 | 
UCCUGCAUCAGCUUGCAUAGUAUUUAGAAA | 0.00131 ± 0.0039 |  |  | 0.000401 ± 0.013
UCCUGGAUGUCGUUGCAUAGAAUUAAGUUA | 0.00084 ± 0.0066 | 0.000692 ± 0.0083 |  | 
UCCUGGUACUCCUUGCAUAGUAUUUAGUUA | 0.00304 ± 0.0036 | 0.00282 ± 0.0031 |  | 
UCCUGGUAGAGCUUGCAUACUAUUUAGUUA | 0.00225 ± 0.0034 | 0.00236 ± 0.0036 |  | 
UCCUGGUACAGCUUGCAUAGAAUUUAGAUA | 0.00143 ± 0.0053 | 0.00171 ± 0.0037 |  | 
UCCUCCUAUCAGCUUGCAUAGUAUUUAGUUA |  | 0.0677 ± 0.018 | 0.322 ± 0.015 | 
UCCUGGAACAGCAUGCAUAGUAUUUACUUA | 0.00132 ± 0.0059 | 0.00102 ± 0.0044 |  | 
UCCUGGAUGAGCUUGCAUAGAAUUUACUUA | 0.000773 ± 0.0065 | 0.000759 ± 0.0044 |  | 
UCCUGGAUCAGCUUGCUUAGUAUUUAGAAA | 0.00295 ± 0.0031 | 0.00269 ± 0.0022 |  | 
UCCUGGAUGUCGUUGCAUACUAUUUUGUUA | 0.000326 ± 0.019 | 0.000162 ± 0.025 |  | 
UCCUCCUUGAGCUUGCAUAGUAUUUAGAAA | 0.00136 ± 0.0046 | 0.00549 ± 0.0018 |  | 
UCCUGCUACAGCUUGCAUAGAAUUUAGAUA | 0.00074 ± 0.0091 |  |  | 0.000504 ± 0.011
UCCUCCUACAGCUUGCAUAGUAUUAAGAUA | 0.00136 ± 0.0039 | 0.00411 ± 0.0022 |  | 
UCCUGCUACAGCUUGCAUACAAUUUACAAA | 0.000228 ± 0.012 | 0.00101 ± 0.009 |  | 
UCCUGGUACAGCUUGCAUAGAAUUUAGUAA | 0.00134 ± 0.0061 | 0.00202 ± 0.0021 |  | 
UCCUGGAUGUCGAACGUUAGUUUAUAGUUA | 0.000247 ± 0.019 |  |  | < 0.0001
UCCUGGAUGAGCUUGCAUACAUUUUACAAA | 0.000197 ± 0.031 |  |  | 0.000299 ± 0.026
UCCUGGAUGUCGAAGCGUAGUAUUUAGUUA | 0.00141 ± 0.0042 | 0.00123 ± 0.0066 |  | 
UCCUGGAUCAGCUUGCAUACUAUUUAGUAA | 0.00144 ± 0.0052 | 0.00398 ± 0.0023 |  | 
UCCUGCUACAGCUUGCAUACGUAUUUAGUUA | 0.00103 ± 0.0078 | 0.00225 ± 0.0022 |  | 
UCCUGCUACAGCUUGCAUACUAAUUAGUUA | 0.00241 ± 0.0031 |  |  | 0.000572 ± 0.014
UCCUGGAUGUCGAACGUUAGUAUUUAGAAA | 0.000166 ± 0.018 | 0.000115 ± 0.079 |  | 
UCCUCCUACAGCUUGCAUAGUAUCUUAGUUA |  | 0.0254 ± 0.011 | 0.285 ± 0.022 | 
UCCUCCUACAGCUUAGCAUAGUAUUUAGUUA |  | 0.0919 ± 0.025 | 0.314 ± 0.017 | 
